Test results as given in article doi:10.1101/2020.05.04.070177.
These are yes or no findings as the source states them, for the method shown. Some results given as binding are weak or reduced against the parent protein; the word gives no strength.

Protein sequences, listed by entry. Tags and fused reporters are not part of them. Residues count along the entry.
UniProt Q14258, residues 189-630: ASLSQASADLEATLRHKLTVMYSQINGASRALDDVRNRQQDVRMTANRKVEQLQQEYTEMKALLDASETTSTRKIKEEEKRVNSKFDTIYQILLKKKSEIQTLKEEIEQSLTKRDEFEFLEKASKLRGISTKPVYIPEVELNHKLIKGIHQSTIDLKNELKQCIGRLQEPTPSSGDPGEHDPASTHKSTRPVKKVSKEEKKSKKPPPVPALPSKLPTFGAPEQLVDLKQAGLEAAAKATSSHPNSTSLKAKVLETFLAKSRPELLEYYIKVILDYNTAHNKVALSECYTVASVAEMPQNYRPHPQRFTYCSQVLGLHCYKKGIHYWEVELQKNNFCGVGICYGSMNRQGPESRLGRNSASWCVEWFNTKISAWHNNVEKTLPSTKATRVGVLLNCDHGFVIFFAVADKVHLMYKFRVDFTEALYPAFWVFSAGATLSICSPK

Molecular target: TRIM25 CC-PRY/SPRY (aa 189-630) (human) (UniProt Q14258)
Assay: NMR 1H,15N-HSQC spectrum

“TRIM25 CC-PRY/SPRY (aa 189-630) (from UniProt Q14258 189-630) (domain or fragment)” was tested, and the binding was “binds weakly”.
